According to patent publication US12538701B2, “Compound and organic light emitting device comprising the same” (LG Chem, Ltd., priority 2020, dated 2026):

Test: Organic light emitting device evaluation with the compound as dopant of the light emitting layer
Settings: for Driving voltage (V @10 mA/cm^2): device with compound as dopant of light emitting layer (2:98 with Compound D); for EQE (% @10 mA/cm^2): external quantum efficiency, device with compound as dopant of light emitting layer; for Lifetime (hr) (T90 @500 nit): time for luminance to fall to 90% of initial luminance (500 nit), 10 mA/cm^2
Protocol: A glass substrate thinly coated with indium tin oxide (ITO) to have a thickness of 500 Å was put into distilled water in which a detergent was dissolved, and ultrasonically washed. In this case, a product manufactured by Fischer Co., was used as the detergent, and distilled water twice filtered using a filter manufactured by Millipore Co., was used as the distilled water. After the ITO was washed for 30 minutes, ultrasonic washing was conducted twice repeatedly using distilled water for 10 minutes. After the washing using distilled water was completed, ultrasonic washing was conducted using isopropyl, and acetone solvents, and drying was conducted, and then the substrate was cleaned for 5 minutes, and then transferred to a glove box.
A coating composition, in which the following Compound B and the following Compound C (weight ratio of 2:8) were dissolved in 20 wt/v % cyclohexanone, was spin-coated (4000 rpm) on the ITO transparent electrode, and heat-treated (cured) at 200° C. for 30 minutes to form a hole injection layer with a thickness of 400 Å. A coating composition, in which the following Compound A (Mn: 27,900; Mw: 35,600; measured by gel permeation chromatography (GPC) on Agilent 1200 series, relative to PC standards) was dissolved in 6 wt/v % toluene, spin-coated (4000 rpm) on the hole injection layer, and heat-treated at 200° C. for 30 minutes to form a hole transport layer with a thickness of 200 Å.
A coating composition, in which Compound 1 prepared in Preparation Example 1 and the following Compound D (weight ratio of 2:98) were dissolved in 2 wt/v % cyclohexanone, spin-coated (4000 rpm) on the hole transport layer, and heat-treated at 180° C. for 30 minutes to form a light emitting layer with a thickness of 400 Å.
After being transferred to a vacuum depositor, the following Compound E was vacuum-deposited to a thickness of 350 Å on the light emitting layer to form an electron injection and transport layer.
LiF and aluminum were sequentially deposited to have a thickness of 10 Å and 1000 Å, respectively, on the electron injection and transport layer, thereby forming a cathode.
In the above-mentioned process, the vapor deposition rate of the organic material was maintained at 0.4 to 0.7 Å/sec, the deposition rate of LiF was maintained at 0.3 Å/sec, the deposition rate of aluminum was maintained at 2 Å/sec, and the degree of vacuum during the deposition was maintained at 2×10^−7 to 5×10^−8 torr.
An organic light emitting device was manufactured in the same manner as in Example 1, except that the compounds shown in Table 2 below were used instead of Compound 1 as a dopant of the light emitting layer.
An organic light emitting device was manufactured in the same manner as in Example 1, except that the compounds shown in Table 2 below were used instead of Compound 1 as a dopant in the light emitting layer.
The driving voltage, external quantum efficiency (EQE), and lifetime were measured by applying a current of 10 mA/cm^2 to the organic light emitting devices manufactured in the Examples and Comparative Examples, and the results are shown in Table 2 below. At this time, the external quantum efficiency (EQE) was calculated as “(the number of emitted photon)/(the number of injected charge carrier)*100”, and T90 means the time required for the luminance to be reduced to 90% of the initial luminance (500 nit).

Structure (SMILES) | Driving voltage (V @10 mA/cm^2) [V] | EQE (% @10 mA/cm^2) [%] | Lifetime (hr) (T90 @500 nit) [h]
Cc1cccc(N(c2ccc3c(ccc4c5c(ccc6c7ccc8cc(N(c9cccc(C)c9)c9cccc%10c9oc9ccccc9%10)ccc8c7n(-c7ccccc7)c65)n(-c5ccccc5)c34)c2)c2cccc3c2oc2ccccc23)c1 [Compound 1] | 4.68 | 8.89 | 131
Cc1cccc(N(c2ccc3c(ccc4c5cc6c7ccc8cc(N(c9cccc(C)c9)c9cccc%10c9oc9ccccc9%10)ccc8c7n(-c7ccccc7)c6cc5n(-c5ccccc5)c34)c2)c2cccc3c2oc2ccccc23)c1 [Compound 2] | 4.69 | 8.87 | 133
Cc1cccc(N(c2ccc3c(ccc4c5cc6c(cc5n(-c5ccccc5)c34)c3ccc4cc(N(c5cccc(C)c5)c5cccc7c5oc5ccccc57)ccc4c3n6-c3ccccc3)c2)c2cccc3c2oc2ccccc23)c1 [Compound 3] | 4.64 | 8.69 | 142
Cc1cccc(N(c2ccc3c(ccc4c5c6c7ccc8cc(N(c9cccc(C)c9)c9cccc%10c9oc9ccccc9%10)ccc8c7n(-c7ccccc7)c6ccc5n(-c5ccccc5)c34)c2)c2cccc3c2oc2ccccc23)c1 [Compound 4] | 4.62 | 8.87 | 129
Cc1cccc(N(c2ccc3c(ccc4c5ccc6c7ccc8cc(N(c9cccc(C)c9)c9cccc%10c9oc9ccccc9%10)ccc8c7n(-c7ccccc7)c6c5n(-c5ccccc5)c34)c2)c2cccc3c2oc2ccccc23)c1 [Compound 5] | 4.69 | 8.69 | 130
c1ccc(-n2c3ccccc3c3cc(-c4ccc(N(c5ccc6ccccc6c5)c5ccc6c(ccc7c8c(ccc9c%10ccc%11cc(N(c%12ccc(-c%13ccc%14c(c%13)c%13ccccc%13n%14-c%13ccccc%13)cc%12)c%12ccc%13ccccc%13c%12)ccc%11c%10n(-c%10ccccc%10)c98)n(-c8ccccc8)c67)c5)cc4)ccc32)cc1 [Compound 6] | 4.61 | 8.78 | 127
c1ccc(-n2c3ccccc3c3cc(-c4ccc(N(c5ccc6ccccc6c5)c5ccc6c(ccc7c8cc9c%10ccc%11cc(N(c%12ccc(-c%13ccc%14c(c%13)c%13ccccc%13n%14-c%13ccccc%13)cc%12)c%12ccc%13ccccc%13c%12)ccc%11c%10n(-c%10ccccc%10)c9cc8n(-c8ccccc8)c67)c5)cc4)ccc32)cc1 [Compound 7] | 4.62 | 8.96 | 138
c1ccc(-n2c3ccccc3c3cc(-c4ccc(N(c5ccc6ccccc6c5)c5ccc6c(ccc7c8cc9c(cc8n(-c8ccccc8)c67)c6ccc7cc(N(c8ccc(-c%10ccc%11c(c%10)c%10ccccc%10n%11-c%10ccccc%10)cc8)c8ccc%10ccccc%10c8)ccc7c6n9-c6ccccc6)c5)cc4)ccc32)cc1 [Compound 8] | 4.67 | 8.57 | 140
c1ccc(-n2c3ccccc3c3cc(-c4ccc(N(c5ccc6ccccc6c5)c5ccc6c(ccc7c8c9c%10ccc%11cc(N(c%12ccc(-c%13ccc%14c(c%13)c%13ccccc%13n%14-c%13ccccc%13)cc%12)c%12ccc%13ccccc%13c%12)ccc%11c%10n(-c%10ccccc%10)c9ccc8n(-c8ccccc8)c67)c5)cc4)ccc32)cc1 [Compound 9] | 4.36 | 8.74 | 137
c1ccc(-n2c3ccccc3c3cc(-c4ccc(N(c5ccc6ccccc6c5)c5ccc6c(ccc7c8ccc9c%10ccc%11cc(N(c%12ccc(-c%13ccc%14c(c%13)c%13ccccc%13n%14-c%13ccccc%13)cc%12)c%12ccc%13ccccc%13c%12)ccc%11c%10n(-c%10ccccc%10)c9c8n(-c8ccccc8)c67)c5)cc4)ccc32)cc1 [Compound 10] | 4.52 | 8.69 | 129
c1ccc(N(c2ccc3cc(-c4cc5ccccc5o4)ccc3c2)c2ccc3c(ccc4c5c(ccc6c7ccc8cc(N(c9ccccc9)c9ccc%10cc(-c%11cc%12ccccc%12o%11)ccc%10c9)ccc8c7n(-c7ccccc7)c65)n(-c5ccccc5)c34)c2)cc1 [Compound 11] | 4.45 | 8.72 | 137
c1ccc(N(c2ccc3cc(-c4cc5ccccc5o4)ccc3c2)c2ccc3c(ccc4c5cc6c7ccc8cc(N(c9ccccc9)c9ccc%10cc(-c%11cc%12ccccc%12o%11)ccc%10c9)ccc8c7n(-c7ccccc7)c6cc5n(-c5ccccc5)c34)c2)cc1 [Compound 12] | 4.68 | 8.80 | 129
c1ccc(N(c2ccc3cc(-c4cc5ccccc5o4)ccc3c2)c2ccc3c(ccc4c5cc6c(cc5n(-c5ccccc5)c34)c3ccc4cc(N(c5ccccc5)c5ccc7cc(-c8cc9ccccc9o8)ccc7c5)ccc4c3n6-c3ccccc3)c2)cc1 [Compound 13] | 4.51 | 8.65 | 148
c1ccc(N(c2ccc3cc(-c4cc5ccccc5o4)ccc3c2)c2ccc3c(ccc4c5c6c7ccc8cc(N(c9ccccc9)c9ccc%10cc(-c%11cc%12ccccc%12o%11)ccc%10c9)ccc8c7n(-c7ccccc7)c6ccc5n(-c5ccccc5)c34)c2)cc1 [Compound 14] | 4.63 | 8.67 | 137
c1ccc(N(c2ccc3cc(-c4cc5ccccc5o4)ccc3c2)c2ccc3c(ccc4c5ccc6c7ccc8cc(N(c9ccccc9)c9ccc%10cc(-c%11cc%12ccccc%12o%11)ccc%10c9)ccc8c7n(-c7ccccc7)c6c5n(-c5ccccc5)c34)c2)cc1 [Compound 15] | 4.71 | 8.64 | 135
CC1(C)c2ccccc2-c2ccc(-n3c4cc5c6ccc7cc(N(c8ccccc8)c8ccc9cc(-c%10cc%11ccccc%11o%10)ccc9c8)ccc7c6n(-c6ccc7c(c6)C(C)(C)c6ccccc6-7)c5cc4c4ccc5cc(N(c6ccccc6)c6ccc7cc(-c8cc9ccccc9o8)ccc7c6)ccc5c43)cc21 [Compound 16] | 4.62 | 8.75 | 142
[2H]c1c([2H])c([2H])c(-n2c3cc4c5ccc6cc(N(c7ccccc7)c7ccc8cc(-c9cc%10ccccc%10o9)ccc8c7)ccc6c5n(-c5c([2H])c([2H])c([2H])c([2H])c5[2H])c4cc3c3ccc4cc(N(c5ccccc5)c5ccc6cc(-c7cc8ccccc8o7)ccc6c5)ccc4c32)c([2H])c1[2H] [Compound 17] | 4.65 | 8.52 | 143
CC(C)(C)c1ccc(N(c2ccc3cc(-c4cc5ccccc5o4)ccc3c2)c2ccc3c(ccc4c5cc6c(cc5n(-c5ccc(C(C)(C)C)cc5)c34)c3ccc4cc(N(c5ccc(C(C)(C)C)cc5)c5ccc7cc(-c8cc9ccccc9o8)ccc7c5)ccc4c3n6-c3ccc(C(C)(C)C)cc3)c2)cc1 [Compound 18] | 4.70 | 8.69 | 146
Cc1cccc(N(c2ccc3c4c5ccc6c(c5ccc4n(-c4ccccc4)c3c2)c2ccc(N(c3cccc(C)c3)c3cccc4c3oc3ccccc34)cc2n6-c2ccccc2)c2cccc3c2oc2ccccc23)c1 [Compound F, reference compound] | 4.70 | 6.87 | 58
CC(C)(C)c1ccc(N(c2ccc(C(C)(C)C)cc2)c2ccc3c4c5ccc6c(c5ccc4n(-c4ccccc4)c3c2)c2ccc(N(c3ccc(C(C)(C)C)cc3)c3ccc(C(C)(C)C)cc3)cc2n6-c2ccccc2)cc1 [Compound G, reference compound] | 4.68 | 7.11 | 67
